The results in this text go back to article PMC5227094.

In experiment [1] the target is TAP-tagged GluN1 (Glun1^TAP/TAP knock-in) (mouse) (UniProt P35438). The experiment is described as follows: affinity purification with mass spectrometry; TAP-GluN1 captured from Glun1^TAP/TAP forebrain deoxycholate extract on Flag antibody-protein G magnetic beads, eluted with Flag peptide, separated by BNP, ∼1.5 MDa and ∼0.8 MDa bands excised, LC-MS/MS; WT mice as control.

For experiment [2] the target is unchanged. The experiment is described as above. This is another data set of the same source.

Read-outs that look alike come from different tables or passages of the source. Results are given in words; binding and its absence hold for the method and conditions named. Binding seen in cells or lysates may run through a third protein. A yes stands for co-enrichment or nearness to the bait. Other partners may have been found.

For the molecule Iqsec2 (from UniProt Q5DU25 1-1478), the binding entry in experiment [1] is “binds”.

B1: Kir2.3 (protein, UniProt P52189 1-445)
chain: MHGHNRNGQAHVPRRKRRNRFVKKNGQCNVYFANLSNKSQRYMADIFTTCVDTRWRYMLMIFSAAFLVSWLFFGLLFWWIAFFHGDLEASPSVPAVGGPGGNGGESPNAPKPCIMHVNGFLGAFLFSVETQTTIGYGFRCVTEECPLAVIAVVVQSIVGCVIDSFMIGTIMAKMARPKKRAQTLLFSHHAVISVRDGKLCLMWRVGNLRKSHIVEAHVRAQLIKPYMTQEGEYLPLDQRDLNVGYDIGLDRIFLVSPIIIVHEIDEDSPLYGMGKEELESEDFEIVVILEGMVEATAMTTQARSSYLASEILWGHRFEPVVFEEKSHYKVDYSRFHKTYEVAGTPCCSARELQESKITVLPAPPPPPSAFCYENELALMSQEEEEMEEEAAAAAAVAAGLGLEAGSKEEAGIIRMLEFGSHLDLERMQAATLPLDNISYRRESRI
With B1, in experiment [2], the binding entry is “binds”.

B2: Arc (protein, UniProt Q9WV31 1-396)
chain: MELDHMTTGGLHAYPAPRGGPAAKPNVILQIGKCRAEMLEHVRRTHRHLLTEVSKQVERELKGLHRSVGKLENNLDGYVPTGDSQRWKKSIKACLCRCQETIANLERWVKREMHVWREVFYRLERWADRLESMGGKYPVGSEPARHTVSVGVGGPEPYCQEADGYDYTVSPYAITPPPAAGELPEQESVEAQQYQSWGPGEDGQPSPGVDTQIFEDPREFLSHLEEYLRQVGGSEEYWLSQIQNHMNGPAKKWWEFKQGSVKNWVEFKKEFLQYSEGTLSREAIQRELELPQKQGEPLDQFLWRKRDLYQTLYVDAEEEEIIQYVVGTLQPKLKRFLRHPLPKTLEQLIQRGMEVQDGLEQAAEPSGTPLPTEDETEALTPALTSESVASDRTQPE
In the case of B2, in experiment [2], the binding result is “binds”.
